Record: PubChem BioAssay AID504774 (Drosophila RNAi Screening Center, 2011)

Assay: 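Genes required for cells to withstand methyl methanesulphonate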 (primary screen)
Cell system: Drosophila Kc167 cells
Reagents: long dsRNA against Drosophila genes, about 0.25 µg dsRNA per well
Time to read-out: about 6 days: 3 days knock-down, then 3 days with or without MMS
Treatment: methyl methanesulphonate 0.004% (w/v) for 3 days after knock-down
Read-out: 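ATP-dependent luminescence as a measure of live cells in MMS-exposed wells, quantile normalised within each plate, with replicate values also given as a mean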
Scale: mean viability with MMS and viability with MMS: higher = more surviving cells after MMS
The screen tested about 23,000 reagents; below is a random part of those that have a named target and a result. 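Values are quantile-normalised luminescence on an arbitrary scale; higher means more cells surviving MMS.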 The numbers tell different reagents against one gene apart. A plus sign joins genes that one reagent is predicted to hit.

| predicted target | reagent no. | mean viability with MMS | viability with MMS, replicate 1 | viability with MMS, replicate 2 |
| --- | --- | --- | --- | --- |
| CG7568 | 1 | 3.66e6 | 4.15e6 | 4.15e6 |
| mRpL20 (mitochondrial ribosomal protein L20) | 1 | 3.78e6 | 4.20e6 | 4.28e6 |
| comm (commissureless) | 1 | 3.45e6 | 4.02e6 | 3.76e6 |
| CG34227 | 1 | 3.47e6 | 3.88e6 | 3.84e6 |
| CG34227 | 2 | 3.40e6 | 3.75e6 | 3.82e6 |
| CG31100 | 1 | 3.54e6 | 3.98e6 | 4.05e6 |
| CG31100 | 2 | 3.72e6 | 4.07e6 | 4.31e6 |
| CG17754 | 1 | 3.56e6 | 4.00e6 | 4.18e6 |
| Cp7Fc (Chorion protein c at 7F) | 1 | 3.54e6 | 3.99e6 | 4.06e6 |
| Osi10b (Osiris 10b) | 1 | 3.48e6 | 3.98e6 | 3.94e6 |
| CG33477 | 1 | 3.43e6 | 3.89e6 | 3.96e6 |
| CG14647 | 1 | 3.57e6 | 4.07e6 | 4.02e6 |
| CG14647 | 2 | 3.37e6 | 3.90e6 | 3.87e6 |
| CG42490 (retired record) | 1 | 3.52e6 | 3.94e6 | 4.05e6 |
| hebe | 1 | 3.60e6 | 4.02e6 | 4.14e6 |
| hebe | 2 | 3.73e6 | 4.23e6 | 4.22e6 |
| hebe | 3 | 3.62e6 | 4.11e6 | 4.10e6 |
| CG12911 | 1 | 3.59e6 | 4.08e6 | 4.03e6 |
| yellow-d2 | 1 | 3.58e6 | 3.87e6 | 4.26e6 |
| Nca (Neurocalcin) | 1 | 3.52e6 | 3.94e6 | 4.04e6 |
| CG14607 | 1 | 3.41e6 | 3.86e6 | 3.89e6 |
| CG13692 | 1 | 3.55e6 | 3.91e6 | 4.14e6 |
| fipi (factor of interpulse interval) | 1 | 3.44e6 | 3.85e6 | 3.95e6 |
| CG34148 + P5CDh2 | 1 | 3.69e6 | 4.24e6 | 4.08e6 |
| CG13016 | 1 | 3.40e6 | 3.93e6 | 3.92e6 |
| Fbxl7 (F-box and leucine-rich repeat protein 7) | 1 | 3.67e6 | 4.20e6 | 4.15e6 |
| CG8701 | 1 | 3.61e6 | 4.12e6 | 4.08e6 |
| side-III (sidestep III) | 1 | 3.50e6 | 4.00e6 | 3.95e6 |
| side-III (sidestep III) | 2 | 3.03e6 | 3.62e6 | 3.65e6 |
| side-III (sidestep III) | 3 | 3.68e6 | 4.11e6 | 4.20e6 |
| CG13449 | 1 | 3.59e6 | 4.02e6 | 4.12e6 |
| CG40439 | 1 | 3.59e6 | 4.06e6 | 4.04e6 |
| CG17261 | 1 | 3.48e6 | 3.89e6 | 4.00e6 |
| CG31142 | 1 | 3.31e6 | 3.76e6 | 3.76e6 |
| Pcd (pterin-4a-carbinolamine dehydratase) | 1 | 3.53e6 | 3.84e6 | 4.16e6 |
| CG7724 | 1 | 3.61e6 | 4.13e6 | 4.04e6 |
| CG31204 | 1 | 3.32e6 | 3.73e6 | 3.83e6 |
| Spn (Spinophilin) | 1 | 3.78e6 | 4.30e6 | 4.14e6 |
| Spn (Spinophilin) | 2 | 3.39e6 | 3.83e6 | 3.88e6 |
| Spn (Spinophilin) | 3 | 3.43e6 | 3.89e6 | 3.91e6 |
| qkr58E-3 (quaking related 58E-3) | 1 | 3.72e6 | 4.46e6 | 4.19e6 |
| CG14958 | 1 | 3.44e6 | 3.89e6 | 3.93e6 |
| CG30020 | 1 | 1.80e6 | 3.96e6 | 3.98e6 |
| CG30020 | 2 | 3.36e6 | 3.73e6 | 3.89e6 |
| CG13766 | 1 | 3.65e6 | 4.07e6 | 4.15e6 |
| ND-B14.5A (NADH dehydrogenase (ubiquinone) B14.5 A subunit) | 1 | 3.54e6 | 3.99e6 | 4.05e6 |
| Orc6 (Origin recognition complex subunit 6) | 1 | 3.52e6 | 4.00e6 | 3.99e6 |
| Cyp4ac3 (Cytochrome P450 4ac3) | 1 | 3.72e6 | 4.25e6 | 4.21e6 |
| Amy-d (Amylase distal) | 1 | 3.55e6 | 3.99e6 | 4.05e6 |

Continued (2 carried over from the part before).
| predicted target | reagent no. | mean viability with MMS | viability with MMS, replicate 1 | viability with MMS, replicate 2 |
| --- | --- | --- | --- | --- |
| Cyp4ac3 (Cytochrome P450 4ac3) | 1 | 3.72e6 | 4.25e6 | 4.21e6 |
| Amy-d (Amylase distal) | 1 | 3.55e6 | 3.99e6 | 4.05e6 |
| Ube4B (Ubiquitination factor E4B) | 1 | 3.52e6 | 3.73e6 | 4.25e6 |
| Dgat2 (Diacylglycerol O-acyltransferase 2) | 1 | 3.76e6 | 4.32e6 | 4.18e6 |
| CG34163 | 1 | 3.41e6 | 3.79e6 | 3.93e6 |
| sno (strawberry notch) | 1 | 3.22e6 | 3.83e6 | 3.43e6 |
| Doc1 (Dorsocross1) | 1 | 3.49e6 | 3.89e6 | 4.02e6 |
| CG42523 | 1 | 3.37e6 | 3.91e6 | 3.78e6 |
| Spc105R (Spc105-related) | 1 | 3.02e6 | 3.59e6 | 3.59e6 |
| und (uninitiated) | 1 | 3.62e6 | 4.31e6 | 3.94e6 |
| Orc4 (Origin recognition complex subunit 4) | 1 | 3.16e6 | 2.91e6 | 3.54e6 |
| Efhc1.1 (EF-hand domain containing 1.1) | 1 | 3.59e6 | 4.10e6 | 4.04e6 |
| CG30394 | 1 | 3.56e6 | 4.03e6 | 4.04e6 |
| CG30394 | 2 | 3.58e6 | 4.04e6 | 4.08e6 |
| sigmar (salivary glands marred) | 1 | 3.64e6 | 3.90e6 | 4.29e6 |
| CG3528 | 1 | 3.47e6 | 3.97e6 | 3.88e6 |
| CG2202 | 1 | 3.38e6 | 4.06e6 | 3.67e6 |
| TwdlM (TweedleM) | 1 | 3.64e6 | 3.94e6 | 4.29e6 |
| DIP-gamma (Dpr-interacting protein gamma) | 1 | 3.58e6 | 3.91e6 | 4.21e6 |
| CG30122 | 1 | 3.52e6 | 3.97e6 | 4.01e6 |
| CG30122 | 2 | 3.69e6 | 4.13e6 | 4.20e6 |
| OtopLc (Otopetrin-like c) | 1 | 3.62e6 | 4.09e6 | 4.12e6 |
| OtopLc (Otopetrin-like c) | 2 | 3.49e6 | 3.99e6 | 3.93e6 |
| OtopLc (Otopetrin-like c) | 3 | 3.72e6 | 4.33e6 | 4.11e6 |
| CG5726 | 1 | 3.44e6 | 3.85e6 | 3.96e6 |
| Tbcc (Tubulin-binding cofactor C) | 1 | 3.39e6 | 3.96e6 | 3.78e6 |
| CG14570 | 1 | 3.60e6 | 4.15e6 | 4.02e6 |
| Prosalpha4T1 (Proteasome alpha4 subunit, Testis-specific 1) | 1 | 3.49e6 | 3.87e6 | 4.06e6 |
| eas (easily shocked) | 1 | 3.31e6 | 3.72e6 | 3.68e6 |
| 5-HT2B (5-hydroxytryptamine (serotonin) receptor 2B) | 1 | 3.54e6 | 4.07e6 | 3.97e6 |
| 5-HT2B (5-hydroxytryptamine (serotonin) receptor 2B) | 2 | 3.51e6 | 3.99e6 | 3.97e6 |
| CG32988 | 1 | 3.37e6 | 3.68e6 | 3.90e6 |
| PPP4R2r (Protein phosphatase 4 regulatory subunit 2-related protein) | 1 | 3.66e6 | 4.11e6 | 4.14e6 |
| PPP4R2r (Protein phosphatase 4 regulatory subunit 2-related protein) | 2 | 3.67e6 | 4.16e6 | 4.13e6 |
| GABPI (beta4GalNAcTB pilot) | 1 | 3.41e6 | 3.70e6 | 3.93e6 |
| Dic4 | 1 | 3.34e6 | 3.79e6 | 3.73e6 |
| CG4360 | 1 | 3.76e6 | 4.21e6 | 4.32e6 |
| Setx (Senataxin) | 1 | 3.28e6 | 3.75e6 | 3.58e6 |
| ap (apterous) | 1 | 3.34e6 | 3.70e6 | 3.52e6 |
| CG3726 | 1 | 3.55e6 | 3.96e6 | 3.99e6 |
| CG3726 | 2 | 3.49e6 | 4.05e6 | 3.92e6 |
